# Laboratory results taken from PubChem BioAssay AID1259415 (National Center for Advancing Translational Sciences (NCATS), 2018).
# Where “and” joins values, the source holds several entries; their conditions need not be identical. Equal entries are not always repeated. Among all 410,000 compounds or so, about 18,000 (4.4%) were called active. The shares of active, inactive and inconclusive entries below differ from those in the screen. Cut-off read from the data, not from the text of the source: active = activity change below about -60%; inconclusive = no clear call, values can overlap the other calls; inactive = above about -39%. A structure can be active in one record and inactive in another.
# Assay: qHTS Assay for inhibitors of the human cytomegalovirus (HCMV)
# Details: HFF cells, HCMV-luciferase reporter, 72 h; at 57.5 µM; stronger effect = lower value
# Summary of the method: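 Two-dose cell screen: HFF monolayers treated with compounds and infected with luciferase-expressing HCMV at 1 PFU/cell, 72 h at 37C, then lysed for luciferase measurement.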
# % is set by controls: 0 for no effect and ±100 for the full control effect.
row,Structure (SMILES),"activity change, negative = inhibition"
1,CC(=O)NCC(=O)OCC(=O)N1c2ccccc2Sc2ccccc21,inconclusive: -48.9%
2,COc1ccccc1CNC(=O)c1cccn1-c1nnc(N2CCCC2)s1,inconclusive: 0%
3,CC(CN1C(C)CCCC1C)OC(=O)c1ccc(Cl)cc1 (centres undefined),inconclusive: -45%
4,COc1cccc(OCc2nnc(-c3cccs3)o2)c1,active: -77.3%
5,COc1c(Br)cc(Br)cc1C(=O)Nc1ccccc1N1CCCC1,inconclusive: -46.2%
6,Cc1cccc2c1CC(C)(C)NC2=C(C#N)C#N,inconclusive: -51%
7,CCCCNC(=O)C1Cc2cc(S(=O)(=O)N3CCCCC3)ccc2N1C(C)=O (centres undefined),inconclusive: -41.1%
8,Cc1ccc(S(=O)(=O)N(CC(=O)Nc2ccc(Cl)c([N+](=O)[O-])c2)C2CCCCC2)cc1,active: -76.7%
9,Cc1ccc(N(C(=O)c2snc(C(N)=O)c2N)C(C(=O)NCC2CCCO2)c2ccc3ncccc3c2)cc1 (centres undefined),inactive: -19.6%
10,CC(=O)N1N=C(c2ccccc2)CC1c1ccccc1[N+](=O)[O-] (centres undefined),inactive: 38.2%
11,CCOc1ccc(CNC(=O)C2CCN(C3=NS(=O)(=O)C(c4ccc(C)cc4)=C3CC)CC2)cc1,inactive: 9.16%
12,CCCCCn1c(=O)[nH]c2cc(C(=O)N3CCN(c4ccc(C(C)=O)cc4)CC3)ccc2c1=O,active: -74%
13,COc1ccc(C2CC(=O)c3cc(-c4nc(-c5ccc(Cl)cc5)cs4)c(=O)[nH]c3C2)cc1 (centres undefined),inactive: 8.4%
14,Cc1ccc(CNC(=O)C(OC(=O)c2cccs2)C(C)C)cc1 (centres undefined),inactive: -20.1%
15,CCc1ccc(N2CN(Cc3ccco3)CNC2=S)cc1,inconclusive: -52.9%
16,Cc1ccc(C)c(-n2c(SCC(=O)NC(C(=O)O)C(C)C)nnc2-c2cccc(Cl)c2)c1 (centres undefined),inconclusive: -44%
17,COc1ccccc1C(=O)Nc1ccccc1N1CCN(C(=O)c2ccc(Cl)cc2)CC1,inactive: -20.8%
18,CCN(CC)S(=O)(=O)c1ccc(/C=C/C(=O)N(c2ccccn2)C2CCCCC2)cc1,inconclusive: -48.2%
19,COc1ccc(NC(=O)C(CC(C)C)NC(=O)C2CCCCC2)c(OC)c1 (centres undefined),inconclusive: -41.1%
20,CCc1nc2ccc(C(=O)NCCc3ccc(SC)cc3)cc2nc1CC,inactive: 71.1%
21,O=C(NNC(=O)C(c1ccccc1)c1ccccc1)c1cccs1,inconclusive: -50%

row,Structure (SMILES),"activity change, negative = inhibition"
1,COc1ccc(OC)c(NC(=O)Cn2c(=O)oc3cc(S(=O)(=O)NCc4ccccc4)ccc32)c1,inconclusive: 0%
2,CCCCNC(=O)c1ccc2c(c1)ncn2C1CCCCC1,inactive: -3.24%
3,O=C(Nc1nc2n(n1)C(c1ccc(F)cc1)C=C(c1ccc(Cl)cc1)N2)c1ccco1 (centres undefined),inconclusive: -57.7%
4,CCOC(=O)c1ccc(N2C(=O)c3n[nH]c(-c4cccs4)c3C2c2ccc(O)c(OC)c2)cc1 (centres undefined),active: -73.8%
5,COc1ccc(Nc2nc(-c3ccccc3)c(C(=O)Nc3cccnc3)s2)cc1,inconclusive: -40.5%
6,Cc1ccc(S(=O)(=O)NNC(=O)C(O)(c2ccccc2)c2ccccc2)cc1,inconclusive: -50.8%
7,COc1ccc(C2SCCN2S(=O)(=O)c2ccc(NC(C)=O)cc2)cc1 (centres undefined),inconclusive: -53.6%
8,CN(C)S(=O)(=O)c1cccc(NC(=S)NC23CC4CC(CC(C4)C2)C3)c1,inconclusive: -43.5%
9,O=C(N/N=C/c1cccc([N+](=O)[O-])c1)c1nc2ccccc2c(=O)[nH]1,inactive: -30.2%
10,COc1cccc(CNC(=O)CCNC(=O)c2ccccc2OC)c1,inactive: -5.69%
11,COc1ccc(CC2(CO)CCN(C(C)Cc3ccc(Cl)cc3)CC2)cc1 (centres undefined),inactive: -8.75%
12,COC(=O)Cc1c(O)ccn(Cc2ccc(OC)c(OC)c2)c1=O,inconclusive: -48.5%
13,Fc1ccc2c(c1)c1n[nH]c(=S)nc1n2CCc1ccccc1,inconclusive: -58.6%
14,CC(CCc1ccccc1)NC(=O)c1ccccc1 (centres undefined),inconclusive: -43.3%
15,CCCc1cc(NC(=O)CCl)n(-c2ccccc2)n1,inconclusive: -57.9%
16,CCN(CC)CCCN(C)C(=O)Cn1nc(Cc2ccncc2)c2ccccc2c1=O,inconclusive: -54.7%
17,CCOc1ccc(-n2nc(CO)c(C(=O)NCc3ccc(Cl)cc3)n2)cc1,inconclusive: -48.4%
18,COc1cc(OC)c(C2=NOC(C(=O)NCc3cccs3)C2)cc1Cl (centres undefined),inconclusive: -48.3%
19,C[C@@]12C(=O)Nc3cc(Cl)ccc3C(=O)N1[C@H]1c3cc(Cl)ccc3OC[C@@H]1[C@@H]2c1ccccc1,inconclusive: -42.9%
20,COc1ccc(S(=O)(=O)N(CC(=O)Nc2cc(C)on2)Cc2ccccc2)cc1,inconclusive: -42.8%
21,CC(C)OC(=O)c1cc2c(ccn2C)n1CC(=O)N(Cc1ccccc1)c1ccccc1,inconclusive: -50.9%

row,Structure (SMILES),"activity change, negative = inhibition"
1,c1ccc(-c2cn(-c3ccccc3)c3ncnc(N4CCN(c5ccccc5)CC4)c23)cc1,inconclusive: -41.3%
2,CCCS(=O)(=O)NC(=O)C1(C)CCCN(C(=O)C2(c3ccc(Cl)cc3)CCCC2)C1 (centres undefined),inconclusive: -58%
3,COc1ccccc1CCn1cnc(Cc2cccc(F)c2)c1C(C)C,inconclusive: -42.8%
4,CC(=O)Nc1nnc(SCC(=O)c2ccc(F)cc2)s1,inconclusive: -41.8%
5,O=C(CCCN1C(=O)/C(=C\c2ccccc2)SC1=S)Nc1ccc(O)cc1C(=O)O,inconclusive: -45.4%
6,Cc1nnsc1S(=O)c1ccc(Cl)c(Cl)c1 (centres undefined),inconclusive: -59%
7,COc1cccc(CNC(=O)CS(=O)(=O)Cc2nc(-c3ccc(C)cc3)oc2C)c1OC,inactive: 5.23%
8,CCOC(=O)C(CC)Sc1nc2c(cnn2-c2ccccc2)c(=O)[nH]1 (centres undefined),inconclusive: -46.8%
9,O=C1CCCc2nc3c(cc21)C(O)Oc1c-3ccc2ccccc12 (centres undefined),inactive: 5.74%
10,CCC(Sc1nc2cc(OC)c(OC)cc2c(=O)n1Cc1ccc(Cl)cc1)C(=O)NCCOC (centres undefined),inactive: -8.22%
11,CCC(CC)C(=O)Nc1c(C(=O)N2CCN(c3ccccc3F)CC2)oc2ccccc12,inactive: -18.6%
12,COc1ccc(/C=C/c2cc(O)cc(O[C@@H]3O[C@H](CO)[C@@H](O)[C@H](O)[C@H]3O)c2)cc1O,inactive: 86.5%
13,Cc1ccc(S(=O)(=O)N2CCN(C(=O)C3CSC4(C)CCC(=O)N34)CC2)cc1C (centres undefined),inconclusive: -43.7%
14,C=C(C)CSc1nnc([C@@H]2CCCN2)o1,inactive: 1.19%
15,CCOC(=O)N1CCC(NC(=O)c2cc(C(=O)Nc3cccc(C(F)(F)F)c3)ccc2CO)CC1,inconclusive: -55.2%
16,COc1ccc(C(=O)ON=C2CCN(C)CC2)cc1,inconclusive: -40.3%
17,CCCCN1C2=NC(c3ccccc3)CN2c2ccccc21 (centres undefined),inconclusive: -47.2%
18,COc1cccc(C(=O)N2N=C(c3ccccn3)CC2(O)C(F)(F)F)c1 (centres undefined),inconclusive: -53%
19,NC(=O)C1CCN(C2=C(NS(=O)(=O)c3ccc(Cl)cc3)C(=O)c3ccccc3C2=O)CC1,inconclusive: -40.3%
20,Cc1ccc(CN=c2c([N+](=O)[O-])nn(-c3cccc(C)c3)n2O)cc1,inconclusive: -41.5%
21,S=c1[nH]nc(COc2ccc(Cl)cc2)o1,inconclusive: -43.8%

row,Structure (SMILES),"activity change, negative = inhibition"
1,CC(=O)Nc1ccc(NC(=O)c2ccc(S(=O)(=O)N(C)c3ccccc3)cc2)cc1,inconclusive: 0%
2,CCC(=O)Nc1nnc(S(=O)(=O)N(C)Cc2ccc(Cl)cc2)s1,inconclusive: 0%
3,CC(C)(C)NC(=O)C1CCN(S(=O)(=O)c2cccc(C(F)(F)F)c2)CC1,inconclusive: -54.2%
4,CCN1/C(=C\C=C2\C(=O)N(c3ccccc3)C(=S)N2C)Sc2ccccc21,active: -63.6%
5,Cc1[nH]c2ccccc2c1C(=O)C(=O)NCCC1=CCCCC1,inconclusive: -55.4%
6,CCOC(=O)N1CCN(c2ncnc3c2[nH]c2ccc(F)cc23)CC1,active: -81%
7,CCOCCOC(NC(=O)c1ccccc1)(C(F)(F)F)C(F)(F)F,inconclusive: -59.1%
8,Cc1cc(-c2ccc(Cl)cc2)oc(=O)c1NC(=O)c1ccccc1,inconclusive: -48.9%
9,O=c1[nH]c2ccccc2n1C1CCN(C(CCc2ccccc2)c2nnnn2C2CCCC2)CC1 (centres undefined),active: -102%
10,NNC(=O)c1ccncc1,inconclusive: -55.8%
11,O=c1[nH][nH]c(C(F)(F)F)c1C=NCc1cccs1,active: -65.2%
12,COc1ccccc1CC(=O)N1CCN(c2ccc([N+](=O)[O-])cc2)CC1,inconclusive: -46%
13,Cc1ccc2nc(NCc3ccco3)c(C=NCc3ccco3)c(=O)n2c1,inconclusive: -43.3%
14,CCCNC(=O)COC(=O)c1n[nH]c2ccccc12,inactive: -15%
15,C[C@]12CCC(=O)C[C@@H]1CC[C@@H]1[C@@H]2CC[C@]2(C)[C@@H](C(=O)COC(=O)CCC(=O)O)CC[C@@H]12,inactive: 4.01% and active: -61.4%
16,COc1ccc(NC(=O)CN(C)S(=O)(=O)c2ccc3c(c2)CC(C)N3C(C)=O)cc1OC (centres undefined),inactive: 23.6%
17,CCOC(=O)c1cc2c(=O)n3cccc(C)c3nc2n(Cc2ccco2)c1=NC(=O)c1ccccc1,inconclusive: -40.1%
18,CCOC(=O)CSc1nc2ccc(NC(=O)CSc3nnnn3Cc3ccccc3)cc2s1,inactive: 4.17%
19,CCCCc1c(-c2ccccc2Br)ncn1CCc1ccccc1OC,active: -93.4%
20,O=S(=O)(Nc1ccc(N2CCCCC2)cc1)c1ccc(F)cc1F,active: -60.5%
21,Clc1ccc(-c2noc(CN(Cc3ccccn3)CC3CCCO3)n2)cc1 (centres undefined),inconclusive: -42.8%

# Sorted by formula weight (high to low): part of the list above.
row,Structure (SMILES),"activity change, negative = inhibition"
8,Cc1ccc(S(=O)(=O)N(CC(=O)Nc2ccc(Cl)c([N+](=O)[O-])c2)C2CCCCC2)cc1,active: -76.7%
5,COc1c(Br)cc(Br)cc1C(=O)Nc1ccccc1N1CCCC1,inconclusive: -46.2%
17,COc1ccccc1C(=O)Nc1ccccc1N1CCN(C(=O)c2ccc(Cl)cc2)CC1,inactive: -20.8%
5,O=C(CCCN1C(=O)/C(=C\c2ccccc2)SC1=S)Nc1ccc(O)cc1C(=O)O,inconclusive: -45.4%
13,Fc1ccc2c(c1)c1n[nH]c(=S)nc1n2CCc1ccccc1,inconclusive: -58.6%
